Data source: PubChem BioAssay AID1259425 (University of Nebraska Medical Center, 2018)

Test: 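Compare each knockdown with KSR1 silencing using changes in marker transcripts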 (primary screen)
Cells: HCT116 human colon cancer cells
Knock-down reagent: siRNA pool against human genes, 50 nM siRNA
Measurement: 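mRNA of six signature genes measured together by branched-DNA assay after 50 nM siRNA pool, blank removed, divided by geometric mean of two housekeeping genes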
Scale: BNIP3L mRNA: higher = more BNIP3L transcript after knockdown; NDRG1 mRNA: higher = more NDRG1 transcript after knockdown; BNIP3 mRNA: higher = more BNIP3 transcript after knockdown; ALDOC mRNA: higher = more ALDOC transcript after knockdown; ACSL5 mRNA: higher = more ACSL5 transcript after knockdown
The whole screen tested about 14,000 reagents; this is a part drawn at random. Not given: the time to read-out.

Gene	BNIP3L mRNA, set 1	NDRG1 mRNA, set 1	BNIP3 mRNA, set 1	ALDOC mRNA, set 1	ACSL5 mRNA, set 1
TBC1D9B (TBC1 domain family member 9B)	0.146	0.323	0.336	0.0637	0.18
SDHB (succinate dehydrogenase complex iron sulfur subunit B)	0.0523	0.186	0.271	0.0399	0.163
FBN2 (fibrillin 2)	0.109	0.353	0.307	0.0387	0.233
MMP16 (matrix metallopeptidase 16)	0.0664	0.108	0.236	0.0279	0.0983
NOL6 (nucleolar protein 6)	0.0591	0.236	0.357	0.0392	0.176
SPINK7 (serine peptidase inhibitor Kazal type 7)	0.264	0.421	0.404	0.0992	0.59
NT5M (5',3'-nucleotidase, mitochondrial)	0.131	0.127	0.274	0.0288	0.195
NUDT16L1 (nudix hydrolase 16 like 1)	0.135	0.146	0.172	0.0385	0.181
RGS17 (regulator of G protein signaling 17)	0.0589	0.236	0.342	0.00759	0.136
LCE2B (late cornified envelope 2B)	0.182	0.35	0.341	0.0232	0.2
ESRRA (estrogen related receptor alpha)	0.0867	0.313	0.244	0.0275	0.124
CLEC11A (C-type lectin domain containing 11A)	0.134	0.0527	0.244	0.0192	0.183
RAB2A (RAB2A, member RAS oncogene family)	0.133	0.25	0.363	0.0473	0.145
RHOJ (ras homolog family member J)	0.0715	0.36	0.426	0.074	0.148
MT-CO1 (mitochondrially encoded cytochrome c oxidase I)	0.136	0.0947	0.426	0.0137	0.136
PRKAB2 (protein kinase AMP-activated non-catalytic subunit beta 2)	0.147	0.1	0.26	0.0284	0.108
LINC00312 (long independently transcribed non-coding RNA 312)	0.12	0.258	0.223	0.0257	0.141
HDAC11 (histone deacetylase 11)	0.0948	0.194	0.237	0.015	0.152
CHEK1 (checkpoint kinase 1)	0.142	0.192	0.266	0.00717	0.497
ABCC9 (ATP binding cassette subfamily C member 9)	0.0689	0.135	0.185	0.0305	0.105
SV2B (synaptic vesicle glycoprotein 2B)	0.126	0.152	0.246	0.0258	0.291
TTYH1 (tweety family member 1)	0.212	0.491	0.356	0.0529	0.491
DDO (D-aspartate oxidase)	0.122	0.106	0.316	0.0272	0.0814
CYP4F11 (cytochrome P450 family 4 subfamily F member 11)	0.0983	0.153	0.308	0.0318	0.0974
ADGRV1 (adhesion G protein-coupled receptor V1)	0.254	0.278	0.905	0.0529	0.163
ZNF107 (zinc finger protein 107)	0.118	0.229	0.361	0.0245	0.215
EMC2 (ER membrane protein complex subunit 2)	0.126	0.159	0.271	0.0419	0.143
UTF1 (undifferentiated embryonic cell transcription factor 1)	0.144	0.144	0.258	0.0112	0.184
MAP4K2 (mitogen-activated protein kinase kinase kinase kinase 2)	0.289	0.0994	0.163	0.0164	0.41
DUS3L (dihydrouridine synthase 3 like)	2.54	1.62	3.87	0.949	0.207
CLIP2 (CAP-Gly domain containing linker protein 2)	0.092	0.178	0.31	0.0131	0.0808
PMFBP1 (polyamine modulated factor 1 binding protein 1)	0.113	0.236	0.249	0.124	0.379
FLNB (filamin B)	0.0553	0.0696	0.343	-0.00023	0.114
MKRN4P (makorin ring finger protein 4, pseudogene)	0.121	0.115	0.246	0.02	0.18
PRG3 (proteoglycan 3, pro eosinophil major basic protein 2)	0.0822	0.0987	0.292	0.0125	0.103
ZBTB22 (zinc finger and BTB domain containing 22)	0.157	0.0732	0.206	0.0156	0.0679
ABCA9 (ATP binding cassette subfamily A member 9)	0.131	0.199	0.322	0.0234	0.136
ARHGAP23 (Rho GTPase activating protein 23)	0.0845	0.0884	0.43	0.0262	0.126
HMGXB3 (HMG-box containing 3)	0.138	0.193	0.19	0.0246	0.183
SYTL1 (synaptotagmin like 1)	0.196	0.172	0.269	0.0485	0.183
CD6 (CD6 molecule)	0.115	0.0955	0.228	0.0429	0.226
MMP2 (matrix metallopeptidase 2)	0.112	0.0896	0.275	0.023	0.145
ATP11B (ATPase phospholipid transporting 11B (putative))	0.0568	0.161	0.207	0.0157	0.156
MFN2 (mitofusin 2)	0.102	0.0993	0.214	0.0205	0.213
FABP4 (fatty acid binding protein 4)	0.139	0.121	0.24	0.0203	0.165
DDX60 (DExD/H-box helicase 60)	0.14	0.18	0.334	0.0173	0.229
LRRC41 (leucine rich repeat containing 41)	0.114	0.15	0.297	0.0334	0.141
MADD (MAP kinase activating death domain)	0.0868	0.106	0.357	0.0389	0.066
PRM2 (protamine 2)	1.5	2.65	3.64	0.17	0.0849
ZCCHC14 (zinc finger CCHC-type containing 14)	0.103	0.245	0.317	0.0501	0.225
